The structures appear in SMILES notation.

The nature of this data set: Xenon T2 in solutions with a high concentration of drug alone. Particulars: no protein, 1×PBS.

For `O=C([O-])c1ccccc1O.[Na+]` [Salicylate, sodium salicylate], the “T2 of xenon in drug solution” value (0.0014 M drug) amounted to 50 ± 1 s. For `CCCCCCCC/C=C\CCCCCCCC(=O)[O-].[Na+]` [Sodium Oleate, sodium oleate], the “T2 of xenon in drug solution” value (0.00003 M drug) worked out at 34 ± 1 s. Regarding `Cc1onc(-c2c(F)cccc2Cl)c1C(=O)N[C@@H]1C(=O)N2[C@@H]1SC(C)(C)[C@@H]2C(=O)O` [Flucloxacillin, flucloxacillin], the “T2 of xenon in drug solution” value (0.0021 M drug) was 43 ± 1 s. As to `Cn1c(=O)c2c(ncn2C)n(C)c1=O` [Caffeine, caffeine], the “T2 of xenon in drug solution” value (0.057 M drug) worked out at 25.8 ± 0.2 s.
